Measured data: PubChem BioAssay AID1259405 (NCATS, 2018)
In all, the deposit lists about 50,000 reagents; shown is a random part of them. About 4,000 of all reagents (8%) count as active. 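Mouse siRNA library applied to hamster cells; one well for each siRNA.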 The numbers tell different reagents against one gene apart.

Assay: 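Mouse-designed siRNAs used to find CHO productivity engineering targets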 (primary screen)
Cells: Chinese hamster CHO-K1 ovary cells with stable secreted eGFP expression
Reagents: single siRNA against mouse genes, 0.8 pmol siRNA per well (2 µl of 400 nM stock)
Time to read-out: 3 days
Detection: 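Percent of the per-plate non-targeting control median for intracellular GFP per well by laser scanning cytometry and for cell viability by ATP luminescence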
Direction: GFP, % of control: higher = more GFP per well, higher productivity; viability (ATP), % of control: higher = more viable cells (more ATP)
Rule for the call: 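Called active when intracellular GFP, relative to negative control, is at or above 120%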

The first 2 entries as a preview:
Mib2 (mindbomb E3 ubiquitin protein ligase 2) #1
- GFP, % of control: 61.7
- viability (ATP), % of control: 55.7
- Call: inactive

Mib2 (mindbomb E3 ubiquitin protein ligase 2) #2
- GFP, % of control: 86.8
- viability (ATP), % of control: 79.5
- Call: inactive

The list itself, from the start:
Mib2 (mindbomb E3 ubiquitin protein ligase 2) #1
- GFP, % of control: 61.7
- viability (ATP), % of control: 55.7
- Call: inactive

Mib2 (mindbomb E3 ubiquitin protein ligase 2) #2
- GFP, % of control: 86.8
- viability (ATP), % of control: 79.5
- Call: inactive

Mib2 (mindbomb E3 ubiquitin protein ligase 2) #3
- GFP, % of control: 108
- viability (ATP), % of control: 104
- Call: inactive

Kcna5 #1
- GFP, % of control: 90.8
- viability (ATP), % of control: 86
- Call: inactive

Kcna5 #2
- GFP, % of control: 127
- viability (ATP), % of control: 92.1
- Call: active

Kcna5 #3
- GFP, % of control: 50.4
- viability (ATP), % of control: 73.2
- Call: inactive

Rpp38 (ribonuclease P/MRP 38 subunit) #1
- GFP, % of control: 98.5
- viability (ATP), % of control: 93.1
- Call: inactive

Rpp38 (ribonuclease P/MRP 38 subunit) #2
- GFP, % of control: 57
- viability (ATP), % of control: 46.1
- Call: inactive

Rpp38 (ribonuclease P/MRP 38 subunit) #3
- GFP, % of control: 118
- viability (ATP), % of control: 56.5
- Call: inactive

Zfp369 (zinc finger protein 369) #1
- GFP, % of control: 52.6
- viability (ATP), % of control: 70
- Call: inactive

Zfp369 (zinc finger protein 369) #2
- GFP, % of control: 67.4
- viability (ATP), % of control: 77.3
- Call: inactive

Zfp369 (zinc finger protein 369) #3
- GFP, % of control: 56.2
- viability (ATP), % of control: 53.3
- Call: inactive

Aanat (arylalkylamine N-acetyltransferase) #1
- GFP, % of control: 38.1
- viability (ATP), % of control: 46.7
- Call: inactive

Aanat (arylalkylamine N-acetyltransferase) #2
- GFP, % of control: 96.2
- viability (ATP), % of control: 129
- Call: inactive

Aanat (arylalkylamine N-acetyltransferase) #3
- GFP, % of control: 70.2
- viability (ATP), % of control: 88.8
- Call: inactive

Trpc4 #1
- GFP, % of control: 117
- viability (ATP), % of control: 84.6
- Call: inactive

Trpc4 #2
- GFP, % of control: 72.7
- viability (ATP), % of control: 63.9
- Call: inactive

Trpc4 #3
- GFP, % of control: 96.3
- viability (ATP), % of control: 90.5
- Call: inactive

Spata31 (spermatogenesis associated 31) #1
- GFP, % of control: 115
- viability (ATP), % of control: 67.2
- Call: inactive

Spata31 (spermatogenesis associated 31) #2
- GFP, % of control: 92.5
- viability (ATP), % of control: 85.2
- Call: inactive

Spata31 (spermatogenesis associated 31) #3
- GFP, % of control: 118
- viability (ATP), % of control: 139
- Call: inactive

Fbxo43 (F-box protein 43) #1
- GFP, % of control: 64.8
- viability (ATP), % of control: 66.6
- Call: inactive

Fbxo43 (F-box protein 43) #2
- GFP, % of control: 94
- viability (ATP), % of control: 72.2
- Call: inactive

Fbxo43 (F-box protein 43) #3
- GFP, % of control: 93.7
- viability (ATP), % of control: 49.2
- Call: inactive

Trpc1 #1
- GFP, % of control: 102
- viability (ATP), % of control: 84.5
- Call: inactive

Trpc1 #2
- GFP, % of control: 79.6
- viability (ATP), % of control: 98.6
- Call: inactive

Trpc1 #3
- GFP, % of control: 59.7
- viability (ATP), % of control: 71.1
- Call: inactive

Asrgl1 (asparaginase like 1) #1
- GFP, % of control: 79.9
- viability (ATP), % of control: 78.8
- Call: inactive

Asrgl1 (asparaginase like 1) #2
- GFP, % of control: 69.9
- viability (ATP), % of control: 88.1
- Call: inactive

Asrgl1 (asparaginase like 1) #3
- GFP, % of control: 45.6
- viability (ATP), % of control: 67.5
- Call: inactive

Thoc1 (THO complex 1) #1
- GFP, % of control: 44.5
- viability (ATP), % of control: 67.9
- Call: inactive

Thoc1 (THO complex 1) #2
- GFP, % of control: 40.5
- viability (ATP), % of control: 81.7
- Call: inactive

Thoc1 (THO complex 1) #3
- GFP, % of control: 70.7
- viability (ATP), % of control: 149
- Call: inactive

Serpinb6a (serine (or cysteine) peptidase inhibitor, clade B, member 6a) #1
- GFP, % of control: 76.3
- viability (ATP), % of control: 88.7
- Call: inactive

Serpinb6a (serine (or cysteine) peptidase inhibitor, clade B, member 6a) #2
- GFP, % of control: 86.9
- viability (ATP), % of control: 85.4
- Call: inactive

Serpinb6a (serine (or cysteine) peptidase inhibitor, clade B, member 6a) #3
- GFP, % of control: 78.5
- viability (ATP), % of control: 75.1
- Call: inactive

Efhb (EF hand domain family, member B) #1
- GFP, % of control: 57.6
- viability (ATP), % of control: 75.8
- Call: inactive

Efhb (EF hand domain family, member B) #2
- GFP, % of control: 70.2
- viability (ATP), % of control: 48.4
- Call: inactive

Efhb (EF hand domain family, member B) #3
- GFP, % of control: 69.3
- viability (ATP), % of control: 80.8
- Call: inactive

Snrnp48 (small nuclear ribonucleoprotein 48 (U11/U12)) #1
- GFP, % of control: 61.1
- viability (ATP), % of control: 93
- Call: inactive

Snrnp48 (small nuclear ribonucleoprotein 48 (U11/U12)) #2
- GFP, % of control: 109
- viability (ATP), % of control: 91.1
- Call: inactive

Snrnp48 (small nuclear ribonucleoprotein 48 (U11/U12)) #3
- GFP, % of control: 188
- viability (ATP), % of control: 162
- Call: active
